Results as given in PubChem BioAssay AID493014 (National Center for Advancing Translational Sciences (NCATS), 2011).
This is one part of the list. Shown are side measurements of this screen, not its main read-out; they come without a call. Most of these compounds were active or inconclusive in the main read-out, so they are no random draw. Words in brackets tell the shape of the fitted curve; partial curves, single points and poor fits give uncertain potencies.

Experiment: qHTS Assay to Find Inhibitors of Chronic Active B-Cell Receptor Signaling
Details: ABC-DLBCL IkBa-CBG/CBR reporter, luminescence ratio (green luciferase fused to IkBa over red control in TMD8 lymphoma cells), 4 h
Procedure, shortened: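 Cell line TMD8 (human ABC DLBCL), stably expressing tet-inducible CBG68-IkBa fusion and CBR; IMDM/0.5% FBS; cpd up to 46 uM; dox induction, 4 h, 37C/5% CO2; dual luminescence; green/red ratio; MG132 control.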

[1] = measured here: CBR red luminescence, cell number

SMILES	AC50 [1]	AC50 (measured here: IkBa-CBG green luminescence)
Clc1cccc(-n2cc(-c3ccccc3)c3c(NC4CCCC4)ncnc32)c1	10 µM [rising, partial curve]	
CNC(=O)/C(=C\C=C\c1ccccc1)NC(=O)c1ccc([N+](=O)[O-])cc1	29.1 µM [rising, single point]	
c1ccc(N2CCN(c3ncccn3)CC2)cc1	5.01 µM [rising, partial curve, poor fit]	
CC1CCN(C(=O)CCCOc2cc(=O)n(C)c3ccccc23)CC1	3.66 µM [rising, full curve]	11.6 µM [falling, partial curve]
Cc1ccc(SCCNC(=O)/C=C/c2ccc(Cl)cc2)cc1	29.1 µM [rising, single point]	
Cc1oc(-c2ccccc2F)nc1CS(=O)CC(=O)NCc1ccc2c(c1)OCO2 (configuration not stated)	4.61 µM [rising, partial curve, poor fit]	
COC(=O)c1cc(NC(=O)c2ccco2)ccc1N1CCOCC1	7.94 µM [falling, partial curve, poor fit]	
COC(=O)c1ccc(Sc2ccc(F)cc2)c(N)c1	29.1 µM [rising, single point]	
COC(=O)c1ccccc1NC(=O)Nc1ccc(Cl)cn1	15.8 µM [falling, partial curve, poor fit]	
COc1ccccc1Oc1ccc2c(c1)C(=O)N(c1cccc(O)c1)C2=O	35.5 µM [falling, single point]	
Cc1cc(C)nc(Sc2ncnc3c2oc2ccccc23)n1	35.5 µM [falling, single point]	
NS(=O)(=O)c1ccccc1	3.16 µM [falling, full curve]	
COc1ccccc1CNC(=O)c1ccccc1SCC(=O)NCc1ccco1	8.2 µM [falling, partial curve]	
Cc1cccc(NC(=S)Nc2ccc(Oc3ccccc3)cc2)n1	0.82 µM [rising, full curve]	
CCN(Cc1ccccc1)c1ccc(/C=N/N=C(N)N)cc1	29.1 µM [falling, single point]	
O=C(N/N=C\c1cccnc1)c1cc(-c2ccc(Cl)s2)[nH]n1	5.62 µM [falling, partial curve, poor fit]	
S=c1[nH]nc(-c2ccccc2)n1/N=C/c1cccs1	16.4 µM [rising, single point]	
CCCCNc1cc(C)nc(NCc2ccccc2)n1	35.5 µM [falling, single point]	
O=C(O)c1ccc(-c2ccc(O)c(F)c2)cc1	0.0731 µM [rising, partial curve, poor fit]	
CCc1nnc(NC(=O)CSc2nnc(-c3ccco3)o2)s1	10 µM [falling, partial curve]	
COC(=O)c1nn(-c2ccccc2)c(Sc2ccc(Br)cc2)c1/C=N/O	12.6 µM [falling, partial curve]	

SMILES	AC50 [1]	AC50 (measured here: IkBa-CBG green luminescence)
Cc1cccc2sc(N(CCN(C)C)C(=O)/C=C/c3cccs3)nc12	29.1 µM [falling, single point]	
O=C(CN1C(=O)S/C(=C\C=C\c2ccccc2)C1=O)N1CCCCC1	20 µM [rising, partial curve, poor fit]	
CCN(CC(=O)NCc1ccc(Cl)cc1)S(=O)(=O)c1ccc(NC(C)=O)cc1	35.5 µM [rising, partial curve, poor fit]	
O=C1CCCc2nc(N3CCc4ccccc43)ncc21	10 µM [rising, partial curve]	
COc1ccccc1-n1c(=O)c(C#N)c(-c2ccc([N+](=O)[O-])cc2)c2cc(C(=O)c3ccccc3O)cnc21	1 µM [falling, full curve, poor fit]	
O=C(Nc1ccc2c(c1)OCO2)c1cnn2c1NC(c1ccco1)CC2C(F)(F)F (configuration not stated)	6.31 µM [rising, full curve]	
CC(C(=O)Nc1ccc2c(c1)OCCO2)N(C)CC(=O)Nc1ccccc1Br (configuration not stated)	18.4 µM [rising, partial curve, poor fit]	
CCc1nn2cc(C(=O)c3ccccc3O)cnc2c1-c1ccc(F)cc1	13 µM [falling, partial curve]	
COc1cccc(CNC(=O)Cn2c(=O)oc3cc(S(=O)(=O)N4CCCCCC4)ccc32)c1	3.55 µM [rising, partial curve, poor fit]	
COC(=O)c1ccccc1NC(=O)c1cc2ccccc2o1	0.224 µM [falling, full curve, poor fit]	
N#CC1=C(N)C(C#N)(C#N)[C@H](c2ccncc2)[C@H]2CC3(CC=C12)OCCO3	12.6 µM [rising, partial curve, poor fit]	
COc1ccc(Br)cc1CN1CCN(Cc2c[nH]c3ccccc23)CC1	35.5 µM [falling, single point]	
Cc1ccc(Cl)cc1NC(=O)C1CCCN1S(=O)(=O)c1ccc(-c2ccc(=O)[nH]n2)s1 (configuration not stated)	2.82 µM [rising, full curve, poor fit]	
O=C(COC(=O)c1ccccc1SCC(=O)N1CCCC1)Nc1ccccc1OC(F)F	20.6 µM [falling, partial curve, poor fit]	
CC(=O)N(/N=C/c1ccc([N+](=O)[O-])o1)c1nc2ccccc2c(=O)n1-c1ccccc1	7.94 µM [rising, partial curve]	
CCN(CC)C(=O)Cn1cnc2sc(C(=O)Nc3cc(OC)c(OC)c(OC)c3)c(C)c2c1=O	0.206 µM [rising, full curve, poor fit]	
CCCc1cc(=O)n2[nH]c(NCc3ccccc3F)nc2n1	29.1 µM [falling, single point]	
O=C1CCCN1c1ccc(S(=O)(=O)Nc2ccc3c(c2)OCCO3)cc1	7.31 µM [falling, single point]	
O=C(c1cc(-c2cccs2)on1)N1CCN(C(c2ccccc2)c2ccccc2)CC1	2.06 µM [rising, partial curve, poor fit]	
COc1ccc(NC(=O)CCS(=O)(=O)c2ccccc2Cl)cc1S(=O)(=O)Nc1ccc(Cl)cc1	35.5 µM [falling, single point]	

Record cards (already shown):
O=C(O)c1ccc(-c2ccc(O)c(F)c2)cc1 is listed with AC50 [1]: 0.0731 µM [rising, partial curve, poor fit]
CCCCNc1cc(C)nc(NCc2ccccc2)n1 is listed with AC50 [1]: 35.5 µM [falling, single point]
O=C(N/N=C\c1cccnc1)c1cc(-c2ccc(Cl)s2)[nH]n1 is listed with AC50 [1]: 5.62 µM [falling, partial curve, poor fit]
